Measurements as given in PMC13059805.
These are yes or no findings as the source states them, for the method shown. Binding seen in cells or lysates may run through a third protein. Some entries that bind do so weakly or less than the wild type.

By UniProt entry, the sequences of proteins in these tests, tags left out.
UniProt Q2G184: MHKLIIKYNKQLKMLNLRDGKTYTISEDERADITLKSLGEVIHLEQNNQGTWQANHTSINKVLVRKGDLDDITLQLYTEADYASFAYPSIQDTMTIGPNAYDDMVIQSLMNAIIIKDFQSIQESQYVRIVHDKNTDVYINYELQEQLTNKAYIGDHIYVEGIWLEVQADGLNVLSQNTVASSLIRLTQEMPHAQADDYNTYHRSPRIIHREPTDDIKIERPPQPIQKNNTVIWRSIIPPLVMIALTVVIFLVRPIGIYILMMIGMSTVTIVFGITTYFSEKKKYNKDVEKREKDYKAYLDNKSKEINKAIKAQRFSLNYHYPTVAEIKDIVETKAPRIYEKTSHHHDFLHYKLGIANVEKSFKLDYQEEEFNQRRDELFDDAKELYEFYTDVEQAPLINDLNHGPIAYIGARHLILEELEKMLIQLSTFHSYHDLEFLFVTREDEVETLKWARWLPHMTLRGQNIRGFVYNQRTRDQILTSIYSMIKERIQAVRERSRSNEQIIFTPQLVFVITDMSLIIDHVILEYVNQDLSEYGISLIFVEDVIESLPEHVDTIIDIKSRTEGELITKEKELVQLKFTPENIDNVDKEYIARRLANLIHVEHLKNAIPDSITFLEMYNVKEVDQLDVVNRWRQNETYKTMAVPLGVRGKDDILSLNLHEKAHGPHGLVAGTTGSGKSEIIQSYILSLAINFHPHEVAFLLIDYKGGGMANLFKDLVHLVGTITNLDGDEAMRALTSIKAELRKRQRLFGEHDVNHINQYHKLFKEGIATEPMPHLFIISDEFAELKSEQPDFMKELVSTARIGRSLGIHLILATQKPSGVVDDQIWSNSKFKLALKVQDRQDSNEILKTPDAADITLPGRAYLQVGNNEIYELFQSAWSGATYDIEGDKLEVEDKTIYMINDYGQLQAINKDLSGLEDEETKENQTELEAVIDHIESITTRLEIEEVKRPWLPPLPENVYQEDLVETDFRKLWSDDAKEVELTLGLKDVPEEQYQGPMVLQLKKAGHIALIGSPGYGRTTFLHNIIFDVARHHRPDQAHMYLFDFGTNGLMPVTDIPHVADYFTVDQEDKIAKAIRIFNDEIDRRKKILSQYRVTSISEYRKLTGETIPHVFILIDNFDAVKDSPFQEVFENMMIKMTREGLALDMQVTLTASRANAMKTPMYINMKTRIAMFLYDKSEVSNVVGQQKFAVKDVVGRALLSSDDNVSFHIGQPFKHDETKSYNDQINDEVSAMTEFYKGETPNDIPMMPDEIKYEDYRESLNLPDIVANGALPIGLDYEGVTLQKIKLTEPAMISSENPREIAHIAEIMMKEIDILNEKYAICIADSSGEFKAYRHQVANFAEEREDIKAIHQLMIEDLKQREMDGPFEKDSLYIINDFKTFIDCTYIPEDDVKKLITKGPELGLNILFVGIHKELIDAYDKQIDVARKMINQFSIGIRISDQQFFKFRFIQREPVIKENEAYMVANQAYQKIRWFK
UniProt Q2G188: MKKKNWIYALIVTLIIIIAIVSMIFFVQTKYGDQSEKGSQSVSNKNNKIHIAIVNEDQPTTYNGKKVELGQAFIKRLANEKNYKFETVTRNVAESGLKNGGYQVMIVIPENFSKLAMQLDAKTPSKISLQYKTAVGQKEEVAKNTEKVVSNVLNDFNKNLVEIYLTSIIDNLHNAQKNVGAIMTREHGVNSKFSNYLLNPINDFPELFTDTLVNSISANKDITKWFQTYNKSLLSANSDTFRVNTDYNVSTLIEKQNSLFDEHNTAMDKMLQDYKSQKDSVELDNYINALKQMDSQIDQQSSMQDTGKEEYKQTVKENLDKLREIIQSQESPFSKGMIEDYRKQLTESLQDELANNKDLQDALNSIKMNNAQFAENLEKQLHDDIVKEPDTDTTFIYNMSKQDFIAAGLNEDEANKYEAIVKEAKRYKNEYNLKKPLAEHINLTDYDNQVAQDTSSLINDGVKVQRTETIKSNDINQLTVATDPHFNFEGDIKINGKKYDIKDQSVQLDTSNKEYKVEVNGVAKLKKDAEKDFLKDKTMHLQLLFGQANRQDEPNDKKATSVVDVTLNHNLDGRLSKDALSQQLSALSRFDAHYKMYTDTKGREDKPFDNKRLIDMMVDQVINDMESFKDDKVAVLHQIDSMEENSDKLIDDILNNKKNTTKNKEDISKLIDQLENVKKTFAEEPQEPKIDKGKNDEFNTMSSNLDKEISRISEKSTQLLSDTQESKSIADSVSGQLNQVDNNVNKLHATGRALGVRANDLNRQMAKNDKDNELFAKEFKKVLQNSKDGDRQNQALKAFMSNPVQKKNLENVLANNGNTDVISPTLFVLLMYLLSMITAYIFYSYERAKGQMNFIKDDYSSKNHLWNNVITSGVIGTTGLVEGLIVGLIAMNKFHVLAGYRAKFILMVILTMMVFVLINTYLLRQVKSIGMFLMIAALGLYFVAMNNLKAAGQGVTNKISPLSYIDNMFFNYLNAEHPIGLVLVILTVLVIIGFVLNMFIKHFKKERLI
UniProt Q2G185: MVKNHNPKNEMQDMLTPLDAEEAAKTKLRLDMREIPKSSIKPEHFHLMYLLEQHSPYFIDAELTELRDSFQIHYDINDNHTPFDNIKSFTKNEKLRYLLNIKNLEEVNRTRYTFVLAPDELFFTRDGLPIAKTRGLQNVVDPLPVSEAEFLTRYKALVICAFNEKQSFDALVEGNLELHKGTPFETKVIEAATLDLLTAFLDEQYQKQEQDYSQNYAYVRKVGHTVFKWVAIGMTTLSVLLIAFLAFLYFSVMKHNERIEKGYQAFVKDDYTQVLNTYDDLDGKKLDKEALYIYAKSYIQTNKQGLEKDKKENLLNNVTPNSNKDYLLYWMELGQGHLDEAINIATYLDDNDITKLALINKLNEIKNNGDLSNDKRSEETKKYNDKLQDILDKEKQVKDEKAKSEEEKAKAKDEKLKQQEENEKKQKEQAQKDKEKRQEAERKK
UniProt Q2G189: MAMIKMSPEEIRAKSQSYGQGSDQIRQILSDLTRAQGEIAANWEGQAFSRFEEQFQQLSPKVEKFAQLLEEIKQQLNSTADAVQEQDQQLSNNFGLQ

Molecular target: EssC with a C-terminal Twin-Strep tag (S. aureus USA300 LAC*) (UniProt Q2G184)
Assay: pull-down; EssCTS held on Strep-Tactin Sepharose from 0.25% DDM extracts of S. aureus membranes (wild type, ∆essH and ∆esaA hosts, T7 permissive culture); 4°C, Buffer A (20 mM Tris pH 8, 300 mM NaCl, 10% glycerol), wash with amphipol A8-35, elution with 5 mM desthiobiotin; eluates immunoblotted; untagged EssC as control

Row | Substance | binding
1 | EsaA (from UniProt Q2G188 1-1009) | binds
2 | EssB (from UniProt Q2G185 1-444) | binds
3 | EsxA (from UniProt Q2G189 1-97) | binds
